Experimental data from US20250296971A1, “GASTRIC INHIBITORY PEPTIDE RECEPTOR LIGANDS” (priority 2021, published 2025).
At least one compound was matched to its structure with a doubt left. Some compounds share one wording; it may come from a single statement. *1 amine or outer side, *2 acyl side, *3 side chain or, on linkers, in order; H or OH if unused. Where a SMILES comes first, the peptide text is derived from it. Bridges are numbered along the chain shown (N, C = ends). [ ]: non-standard residue; d: D form. The star is where a group is joined. DOTA(In) = O=C1CN2CCN3CCN(CC(=O)*)CCN(CC2)CC(=O)[O][In]([O]1)[O]C(=O)C3; X3 = O=C(O)CN1CCN(CC(=O)O)CCN(CC(=O)NCCCOCCOCCOCCCN*)CCN(CC(=O)O)CC1; NH(1-deoxy-D-glucityl) = OC[C@@H](O)[C@@H](O)[C@H](O)[C@@H](O)CN*; DOTA = O=C(O)CN1CCN(CC(=O)O)CCN(CC(=O)*)CCN(CC(=O)O)CC1; Trp(5-Cl) = N[C@@H](Cc1c[nH]c2ccc(Cl)cc12)C(=O)O; Pyridine(2,6-diCH2) = c1cc(C[*:1])nc(C[*:2])c1; Pro(4R-NH2) = N[C@H]1CN[C@H](C(=O)O)C1; Glutaryl = O=C(CCCC(=O)[*:2])[*:1]; X6 = c1cc(CSCCN[*:2])nc(C[*:1])c1; X7 = c1cc(CSCCN[*:2])cc(C[*:1])c1; Cya = N[C@@H](CS(=O)(=O)O)C(=O)O; Hyp = O=C(O)[C@@H]1C[C@@H](O)CN1; X1 = O=C(CN1CCC(N[*:1])CC1)[*:2]; Suc = O=C(CCC(=O)[*:2])[*:1]; Api = NC1(C(=O)O)CCNCC1; Thp = NC1(C(=O)O)CCOCC1; Aib = CC(C)(N)C(=O)O

Assays:
[1] = target: T1, human GIP receptor (bioGIPR) (Homo sapiens, UniProt P48546); assay: Surface plasmon resonance (SPR) based binding assay; details: Single Cycle Kinetic mode, 25° C.; for t1/2 Category: SPR dissociation half-life
T1 construct: Biotinylate extracellular of the human GIP receptor (bioGIPR, Proteros biostructures GmbH, lot #02/2b); purchased Proteros biostructures GmbH lot #02/2b
T1 sequence (P48546 22-138 limits assumed): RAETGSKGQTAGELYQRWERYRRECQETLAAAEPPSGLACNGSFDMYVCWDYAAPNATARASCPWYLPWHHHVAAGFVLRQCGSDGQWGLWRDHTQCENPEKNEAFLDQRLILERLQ
Experimental: Surface plasmon resonance (SPR) studies were performed using a Biacore™ T200 SPR system. Briefly, polarized light is directed towards a gold-labeled sensor surface, and minimum intensity reflected light is detected. The angle of reflected light changes as molecules bind and dissociate.
Biotinylate extracellular of the human GIP receptor (bioGIPR, Proteros biostructures GmbH, lot #02/2b) was captured on a biotin capture chip (Biotin CAPture Kit, Series S, GE Healthcare, Cat #28-9202-34). bioGIPR was diluted in Running Buffer (HBST from Xantec Analytics; […], 0.05% Tween20, 0.1% DMSO) to a final concentration 100 nM and than flushed over the Fc-capture chip to immobilized ˜3500 RUs.
Stock solutions of test compounds were prepared by dissolving each compound in DMSO. DMSO stock solution were diluted 1:1000 in Running Buffer without DMSO. Further sequential dilutions were made with Running Buffer containing 0.1% DMSO. SPR binding analyses were performed in Single Cycle Kinetic (SCK) mode at 25° C. Flow cell without immobilized bioGIPR served as reference flowcell. After each SCK run, bioGIRP and the Biotin Capture Reagent was removed with Regeneration Solution (6 M Guanidium, 0.75 M NaOH).
In between every three SCK measurements, a blank run with Running Buffer instead of test compound was included to correct for baseline drifts (double blanking method).
For each test compound, SPR raw data in the form of resonance units (RU) were plotted as sensorgrams using the Biacore™ T200 control software. The signal from the blank sensorgram was subtracted from that of the test compound sensorgram (blank corrected). The blank corrected sensorgram was corrected for baseline drift by subtracting the sensorgram of a SCK run without the test compound (running buffer only). The association rate (kon), dissociation rate (koff), dissociation constant (KD), and t1/2 were calculated from blank corrected SPR data using the 1:1 Langmuir binding model from the Biacore™ T200 evaluation software. Raw data and fit results were imported as text files in IDBS. The pKD value (negative decadic logarithm of dissociation constant) was calculated in the IDBS excel template.

[2] = target: T2, GIPR (CHO-K1-hGIPR cells) (Homo sapiens, UniProt P48546); assay: FACS binding assay; details: competition with 20 nM GIP-057, 4° C., 1 hour
T2 construct: host or cells: CHO-K1
T2 sequence (P48546 22-466): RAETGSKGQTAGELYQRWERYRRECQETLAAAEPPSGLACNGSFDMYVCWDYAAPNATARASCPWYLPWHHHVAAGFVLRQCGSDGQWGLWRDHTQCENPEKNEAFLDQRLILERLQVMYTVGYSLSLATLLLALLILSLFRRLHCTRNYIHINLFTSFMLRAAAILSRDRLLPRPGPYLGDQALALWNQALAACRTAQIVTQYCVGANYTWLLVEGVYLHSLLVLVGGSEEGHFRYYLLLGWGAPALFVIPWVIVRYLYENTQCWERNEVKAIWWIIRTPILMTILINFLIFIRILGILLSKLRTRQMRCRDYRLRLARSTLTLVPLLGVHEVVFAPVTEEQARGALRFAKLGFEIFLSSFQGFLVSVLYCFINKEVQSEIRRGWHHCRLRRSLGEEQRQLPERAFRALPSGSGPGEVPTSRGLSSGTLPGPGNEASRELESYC
Experimental: In order to determine binding of compounds according to the present invention to GIPR-expressing cells, a FACS binding assay was established.
CHO-K1-hGIPR cells (GenScript Biotech, #M00486) were cultured in Ham's F12 medium (Sigma-Aldrich, #N4888) including 10% fetal calf serum (FCS), 2 mM L-glutamine, 100 U/mL penicillin, 100 μg/mL streptomycin, 200 μg/mL Zeocin and 100 μg/mL HygromycinB. Cells were detached with Accutase (Biolegend, #BLD-423201) and washed in FACS buffer (PBS including 1% FCS). Cells were diluted in FACS buffer to a final concentration of 500.000 cells per mL. 200 μL of the cell suspension were transferred to a u-shaped non-binding 96-well plate (Greiner) and cells were washed in ice-cold FACS buffer.
Cells were washed twice in FACS buffer. An additional incubation step with 1 μg/mL APC-Streptavidin (Miltenyi; #130-106-791) in 50 μL FACS buffer for 30 min on ice was performed followed by two washes with FACS buffer.
Cells were analyzed in an Attune NxT flow cytometer. Median fluorescence intensities (MFI) of the APC/Cy5-channel were calculated by Attune NxT software. MFI values were plotted against peptide concentration and four parameter logistic (4PL) curve fitting and EC50/pEC50 or IC50/pIC50 calculations were performed using ActivityBase software.

Row | SMILES | t1/2 Category [1] | pIC50 Category [2] | pKD Category ([1]; SPR, 1:1 Langmuir binding model)
1 | CC[C@H](C)[C@@H]1NC(=O)[C@H](CC(C)C)NC(=O)C(C)(C)NC(=O)[C@@H](NC(=O)[C@@H](CC(C)C)NC(=O)[C@H](CCC(=O)O)NC(=O)[C@@H]2CCCN2C(=O)[C@H](Cc2c[nH]c3ccc(Cl)cc23)NC(=O)[C@H](Cc2c[nH]c3ccccc23)NC(=O)[C@H](CC(=O)O)NC(=O)CN2CCC(NC(=O)CN3CCN4CCN5CCN(CC3)CC(=O)[O][In]([O]C(=O)C4)[O]C(=O)C5)CC2)CSCc2cccc(c2)CSCCNC1=O [GIP-153, InDOTA-APAc-Asp-Trp-5Clw-Pro-Glu-leu-[Cys(3MeBn)-Aib-Leu-Ile-AET]] ({DOTA(In)}-[X1]DW[Trp(5-Cl)]PE[dL]C[Aib]LI; linker 8-C via X7) | A (t1/2 values>15 min) | – | –
2 | CC[C@H](C)[C@@H]1NC(=O)[C@H](CC(C)C)NC(=O)C2(CCN(C(=O)CN3CCN(CC(=O)O)CCN(CC(=O)O)CCN(CC(=O)O)CC3)CC2)NC(=O)[C@@H](NC(=O)[C@@H](CC(C)C)NC(=O)[C@H](CCC(=O)O)NC(=O)[C@@H]2C[C@@H](O)CN2C(=O)[C@H](Cc2c[nH]c3ccc(Cl)cc23)NC(=O)[C@H](Cc2c[nH]c3ccccc23)NC(=O)[C@H](CC(=O)O)NC(=O)CCCC(=O)NC[C@H](O)[C@@H](O)[C@H](O)[C@H](O)CO)CSCc2cccc(n2)CSC[C@@H](C(=O)NC2CCN(CC(=O)N[C@H](CCC(=O)NC[C@H](O)[C@@H](O)[C@H](O)[C@H](O)CO)C(N)=O)CC2)NC1=O [GIP-065, Indium-Complex of AGLU-Glutar-Asp-Trp-5Clw-Hyp-Glu-leu-[Cys(2Lut)-Apc(DOTA)-Leu-Ile-Cys]-APAc-glu(AGLU)-NH2] ({NH(1-deoxy-D-glucityl)-Glutaryl}-DW[Trp(5-Cl)][Hyp]E[dL]C[Api](DOTA)LIC[X1][dE](NH(1-deoxy-D-glucityl))-NH2; linker 7-11 via Pyridine(2,6-diCH2)) | A (t1/2 values>15 min) | A (pIC50 values>8.0) | A (pKD values>9.0)
3 | CC[C@H](C)[C@@H]1NC(=O)[C@H](CC(C)C)NC(=O)C2(CCN(C(=O)CN3CCN4CCN5CCN(CC3)CC(=O)[O][In]([O]C(=O)C5)[O]C(=O)C4)CC2)NC(=O)[C@@H](NC(=O)[C@@H](CC(C)C)NC(=O)[C@H](CCC(=O)O)NC(=O)[C@@H]2C[C@@H](O)CN2C(=O)[C@H](Cc2c[nH]c3ccc(Cl)cc23)NC(=O)[C@H](Cc2c[nH]c3ccccc23)NC(=O)[C@H](CC(=O)O)NC(=O)CCCC(=O)NC[C@H](O)[C@@H](O)[C@H](O)[C@H](O)CO)CSCc2cccc(n2)CSCCNC1=O [GIP-146, AGLU-Glutar-Asp-Trp-5Clw-Hyp-Glu-leu-[Cys(2Lut)-Apc(InDOTA)-Leu-Ile-AET]] ({NH(1-deoxy-D-glucityl)-Glutaryl}-DW[Trp(5-Cl)][Hyp]E[dL]C[Api](DOTA(In))LI; linker 7-C via X6) | A (t1/2 values>15 min) | – | –
4 | CC[C@H](C)[C@@H]1NC(=O)[C@H](CC(C)C)NC(=O)C2(CCOCC2)NC(=O)[C@@H](NC(=O)[C@@H](CC(C)C)NC(=O)[C@H](CCC(=O)O)NC(=O)[C@@H]2C[C@@H](O)CN2C(=O)[C@H](Cc2c[nH]c3ccc(Cl)cc23)NC(=O)[C@H](Cc2c[nH]c3ccccc23)NC(=O)[C@H](CC(=O)O)NC(=O)CN2CCC(NC(=O)CN3CCN4CCN5CCN(CC3)CC(=O)[O][In]([O]C(=O)C4)[O]C(=O)C5)CC2)CSCc2cccc(n2)CSCCNC1=O [GIP-155, InDOTA-APAc-Asp-Trp-5Clw-Hyp-Glu-leu-[Cys(2Lut)-Thp-Leu-Ile-AET]] ({DOTA(In)}-[X1]DW[Trp(5-Cl)][Hyp]E[dL]C[Thp]LI; linker 8-C via X6) | A (t1/2 values>15 min) | – | –
5 | CC[C@H](C)[C@@H]1NC(=O)[C@H](CC(C)C)NC(=O)C2(CCN(C(=O)CN3CCN(CC(=O)O)CCN(CC(=O)O)CCN(CC(=O)O)CC3)CC2)NC(=O)[C@@H](NC(=O)[C@@H](CC(C)C)NC(=O)[C@H](CCC(=O)O)NC(=O)[C@@H]2C[C@@H](N)CN2C(=O)[C@H](Cc2c[nH]c3ccc(Cl)cc23)NC(=O)[C@H](Cc2c[nH]c3ccccc23)NC(=O)[C@H](CC(=O)O)NC(=O)CCCC(=O)NC[C@H](O)[C@@H](O)[C@H](O)[C@H](O)CO)CSCc2cccc(n2)CSC[C@@H](C(=O)NC2CCN(CC(=O)N[C@H](CCC(=O)NC[C@H](O)[C@@H](O)[C@H](O)[C@H](O)CO)C(N)=O)CC2)NC1=O [GIP-068, AGLU-Glutar-Asp-Trp-5Clw-Tap-Glu-leu-[Cys(2Lut)-Apc (InDOTA)-Leu-Ile-Cys]-APAc-glu (AGLU)-NH2] ({NH(1-deoxy-D-glucityl)-Glutaryl}-DW[Trp(5-Cl)][Pro(4R-NH2)]E[dL]C[Api](DOTA)LIC[X1][dE](NH(1-deoxy-D-glucityl))-NH2; linker 7-11 via Pyridine(2,6-diCH2)) | A (t1/2 values>15 min) | – | –
6 | CC[C@H](C)[C@@H]1NC(=O)[C@H](CC(C)C)NC(=O)C(C)(C)NC(=O)[C@@H](NC(=O)[C@@H](CC(C)C)NC(=O)[C@H](CCC(=O)O)NC(=O)[C@@H]2C[C@@H](O)CN2C(=O)[C@H](Cc2c[nH]c3ccc(Cl)cc23)NC(=O)[C@H](Cc2c[nH]c3ccccc23)NC(=O)[C@H](CS(=O)(=O)O)NC(C)=O)CSCc2cccc(n2)CSCCNC1=O [GIP-179, Ac-Cya-Trp-5Clw-Hyp-Glu-leu-[Cys(2Lut)-Aib-Leu-Ile-AET]] (Ac-[Cya]W[Trp(5-Cl)][Hyp]E[dL]C[Aib]LI; linker 7-C via X6) | A (t1/2 values>15 min) | – | –
7 | CC[C@H](C)[C@@H]1NC(=O)[C@H](CC(C)C)NC(=O)C(C)(C)NC(=O)[C@@H](NC(=O)[C@@H](CC(C)C)NC(=O)[C@H](CCC(=O)O)NC(=O)[C@@H]2CCCN2C(=O)[C@H](Cc2c[nH]c3ccc(Cl)cc23)NC(=O)[C@H](Cc2c[nH]c3ccccc23)NC(=O)[C@H](CC(=O)O)NC(=O)CCC(=O)NCCCOCCOCCOCCCNC(=O)CN2CCN(CC(=O)O)CCN(CC(=O)O)CCN(CC(=O)O)CC2)CSCc2cccc(c2)CSCCNC1=O [GIP-077, DOTA-Ttds-Asp-Trp-5Clw-Pro-Glu-leu-[Cys(3MeBn)-Aib-Leu-Ile-AET]] ({X3-Suc}-DW[Trp(5-Cl)]PE[dL]C[Aib]LI; linker 7-C via X7) | A (t1/2 values>15 min) | – | –
